Drawing on publication PMC9299759, “FBXW24 controls female meiotic prophase progression by regulating SYCP3 ubiquitination” (Clinical and Translational Medicine, 2022), this text covers binding for 4 molecules.

The chains behind the UniProt entries cited, without tags or fusion partners.
UniProt Q3UIR3: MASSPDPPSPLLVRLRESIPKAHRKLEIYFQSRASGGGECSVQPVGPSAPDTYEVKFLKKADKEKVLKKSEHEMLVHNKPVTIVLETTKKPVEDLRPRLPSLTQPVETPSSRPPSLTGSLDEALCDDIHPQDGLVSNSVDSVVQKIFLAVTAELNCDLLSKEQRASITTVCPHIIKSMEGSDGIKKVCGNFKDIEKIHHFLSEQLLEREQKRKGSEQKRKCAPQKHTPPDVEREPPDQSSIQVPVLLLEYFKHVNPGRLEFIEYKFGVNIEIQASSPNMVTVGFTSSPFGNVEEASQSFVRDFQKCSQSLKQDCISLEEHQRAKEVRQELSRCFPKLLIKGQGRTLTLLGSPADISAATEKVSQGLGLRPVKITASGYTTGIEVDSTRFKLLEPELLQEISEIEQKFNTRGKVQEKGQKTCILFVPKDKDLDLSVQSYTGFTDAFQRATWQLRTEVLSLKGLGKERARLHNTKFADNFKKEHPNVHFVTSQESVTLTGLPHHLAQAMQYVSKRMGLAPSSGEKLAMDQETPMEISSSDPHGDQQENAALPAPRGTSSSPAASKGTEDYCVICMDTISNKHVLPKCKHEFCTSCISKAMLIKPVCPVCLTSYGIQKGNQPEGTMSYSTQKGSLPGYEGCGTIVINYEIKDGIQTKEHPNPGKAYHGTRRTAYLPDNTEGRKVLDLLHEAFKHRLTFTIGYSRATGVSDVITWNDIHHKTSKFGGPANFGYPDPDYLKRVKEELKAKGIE

The target of test [1] is T1, FBXW24 as in the co‐IP with STAT1 and DTX3L (Figure 8J, M) (mouse) (UniProt E9PXM9).
T1 sequence: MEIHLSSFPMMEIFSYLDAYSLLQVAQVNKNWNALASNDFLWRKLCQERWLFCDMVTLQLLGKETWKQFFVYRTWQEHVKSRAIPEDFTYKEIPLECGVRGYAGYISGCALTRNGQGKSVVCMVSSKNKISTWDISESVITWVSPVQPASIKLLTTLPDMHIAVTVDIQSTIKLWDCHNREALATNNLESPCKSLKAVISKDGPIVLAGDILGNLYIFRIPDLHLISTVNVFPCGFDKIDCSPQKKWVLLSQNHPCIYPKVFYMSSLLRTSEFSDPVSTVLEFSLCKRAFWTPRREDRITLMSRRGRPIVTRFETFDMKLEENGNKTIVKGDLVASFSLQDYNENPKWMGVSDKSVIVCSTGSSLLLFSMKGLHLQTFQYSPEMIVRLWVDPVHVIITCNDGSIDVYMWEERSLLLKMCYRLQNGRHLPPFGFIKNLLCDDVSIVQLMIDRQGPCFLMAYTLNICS
The test can be described thus: co-IP; co-IP and western blot (Figure 8J, M); sample and precipitating antibody not told.

Test [2] deals with T2, SYCP3, yeast two-hybrid construct (mouse) (UniProt P70281).
T2 sequence: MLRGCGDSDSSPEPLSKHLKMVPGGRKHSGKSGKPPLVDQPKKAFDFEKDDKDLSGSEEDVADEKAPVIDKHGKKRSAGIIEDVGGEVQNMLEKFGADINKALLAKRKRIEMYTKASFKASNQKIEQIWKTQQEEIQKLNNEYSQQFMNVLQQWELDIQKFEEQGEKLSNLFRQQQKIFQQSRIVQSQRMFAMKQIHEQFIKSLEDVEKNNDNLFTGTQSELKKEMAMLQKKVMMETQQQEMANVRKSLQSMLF
The test can be described thus: two-hybrid; yeast two-hybrid (Y2H); vectors, bait and prey not told.

These are yes or no findings as the source states them, for the method shown. For some of these results: Binding seen in cells or lysates may run through a third protein. Some binding calls cover weakened binding; strength is not graded here.

Consider DTX3L (from UniProt Q3UIR3 1-748), for which the binding entry in test [1] was “binds”.

B1: FBXW24‐4 (301–466 AA), yeast two-hybrid construct (domain or fragment, UniProt E9PXM9 301-466)
chain: LMSRRGRPIVTRFETFDMKLEENGNKTIVKGDLVASFSLQDYNENPKWMGVSDKSVIVCSTGSSLLLFSMKGLHLQTFQYSPEMIVRLWVDPVHVIITCNDGSIDVYMWEERSLLLKMCYRLQNGRHLPPFGFIKNLLCDDVSIVQLMIDRQGPCFLMAYTLNICS
On to B1, for which, in test [2], the binding result is on record as “binds”.

B2: FBXW24 (F‐box and WD‐40 domain protein 24), yeast two-hybrid construct (protein, UniProt E9PXM9 1-466)
chain: T1 sequence
Regarding B2, the binding result in test [2] was “binds”.

B3: FBXW24‐2 (100–191 AA), yeast two-hybrid construct (domain or fragment, UniProt E9PXM9 100-191)
chain: RGYAGYISGCALTRNGQGKSVVCMVSSKNKISTWDISESVITWVSPVQPASIKLLTTLPDMHIAVTVDIQSTIKLWDCHNREALATNNLESP
Turning to B3, the binding entry in test [2] was “binds”.
